Assay results reported in PubChem BioAssay AID504834 (National Center for Advancing Translational Sciences (NCATS), 2011).
The campaign covered roughly 320,000 compounds. About 22,000 (6.9%) were called active. Inconclusive means that the source gave no clear call. Such entries were picked first, then a sample of the others. The call rests on the fitted dose curve; in most records, active means well fitted inhibition curve with a large enough effect; inconclusive means small, poorly fitted or top-dose-only effect, or another doubt; inactive means no such curve, though single readings can be large or run the other way. Potencies beside an inconclusive call are fits to weak or partial responses and may not hold up.

Assay: Primary qHTS for delayed death inhibitors of the malarial parasite plastid, 96 hour incubation
Settings: P. falciparum luciferase reporter growth; series mostly up to 28.7 µM; activity change, negative = inhibition: at the top concentration
Summary of the method: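 P. falciparum expressing integrated firefly luciferase grown in erythrocytes (2% hematocrit, 0.05% parasitemia final) with compounds for 96 hours at 37 C, 5% CO2. Growth inhibition read as loss of luminescence after adding luciferase detection reagent.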
On the % scale 0 is the no-effect control and ±100 the full control effect; potency means the concentration at half of the fitted maximal effect.

Structure (SMILES)	activity change, negative = inhibition	Potency
Clc1ccccc1C1=CC(c2ccco2)n2nnnc2N1 (centres undefined)	inactive: 24.2%	
S=C(NCCCN1CCOCC1)N1CCN(c2nc(-c3ccc(Cl)cc3)cs2)CC1	inactive: 10.5%	
Cc1nc2ccc(NC(=O)N3CCC(c4ccccc4)C3)cc2nc1C (centres undefined)		inconclusive: 18.5 µM [inhibitor, single point]
CCOC(=O)c1c(S(=O)(=O)N2CCCCCC2)c(C)n(C)c1C		inconclusive: 18.5 µM [inhibitor, single point]
O=C(Nc1ccc(-c2nc3c(ccc4ccccc43)o2)cc1)c1ccco1		active: 1.85 µM
CCC(C(=O)Nc1ccccc1N1CCCC1)c1ccccc1 (centres undefined)		inconclusive: 18.5 µM [inhibitor, single point]
O=C(N/N=C/c1ccccn1)c1cc(-c2ccc(Cl)cc2)nc2ccccc12		active: 9.28 µM
COc1ccc2oc(=Nc3ccccc3)c(-c3nc4ccccc4[nH]3)cc2c1	inactive: 48.6%	
Cn1c(NN=O)nc2ccccc21		inconclusive: 7.38 µM [inhibitor, partial curve]
COc1cccc(CN(C)C(=O)Cc2c[nH]c3ccccc23)c1	inactive: -0.219%	
CCOC(=O)C1(Cc2ccccc2)CCCN(C2CCN(C(C)=O)CC2)C1 (centres undefined)		inconclusive: 18.5 µM [inhibitor, single point]
c1ccc(-c2cc3ccccc3[nH]2)cc1	inactive: 199%	
CCOc1ccc(Oc2ccc(Cl)cc2NC(=O)C2=COCCO2)cc1		inconclusive: 18.5 µM [inhibitor, single point]
Cc1ccc(-n2c(O)cnc2Nc2nc(C)cc(C)n2)cc1		active: 0.294 µM
O=[N+]([O-])c1ccc(-n2nnnc2-c2ccccc2)cc1	inactive: -14.1%	
COc1ccccc1CCN1CCCC(CN(C)CC(C)(C)CO)C1 (centres undefined)		active: 11.7 µM
COc1cc(/C=C(\CC(=O)O)c2nc3ccccc3s2)cc(OC)c1O	inactive: 53.3%	
O=C(CN(Cc1ccc(Br)cc1)S(=O)(=O)c1ccccc1)NCc1cccnc1	inactive: 3.14%	
N#CCCn1c(SCC(=O)NCC2CCCO2)nc2ccccc21 (centres undefined)		inconclusive: 11.7 µM [inhibitor, single point]
CCCCOc1ccc(CNC(=O)NS(=O)(=O)c2ccc(OCC(C)C)cc2)cc1	inactive: 10.1%	
CCc1nc(SCC(=O)N2CC(=O)Nc3ccccc32)c2c(C)c(C)sc2n1	inactive: -145%	
O=C(Cn1c(=O)sc2ccccc21)Nc1ccc(O)cc1	inactive: -41.8% [at 5.75 µM]	
COC(=O)C1=COC(C)C2CN3CCC4(C(=O)Nc5ccccc54)C3CC12 (centres undefined)		inconclusive: 3.29 µM [inhibitor, full curve]
O=C(O)c1ccc(/C=C2\SC(=S)N(Nc3ccccc3)C2=O)cc1		inconclusive: 1.04 µM [inhibitor, partial curve]

6 neighbouring records out of the list so far:
Structure (SMILES)	activity change, negative = inhibition	Potency
CCOC(=O)c1c(S(=O)(=O)N2CCCCCC2)c(C)n(C)c1C		inconclusive: 18.5 µM [inhibitor, single point]
O=C(Nc1ccc(-c2nc3c(ccc4ccccc43)o2)cc1)c1ccco1		active: 1.85 µM
CCC(C(=O)Nc1ccccc1N1CCCC1)c1ccccc1 (centres undefined)		inconclusive: 18.5 µM [inhibitor, single point]
O=C(N/N=C/c1ccccn1)c1cc(-c2ccc(Cl)cc2)nc2ccccc12		active: 9.28 µM
COc1ccc2oc(=Nc3ccccc3)c(-c3nc4ccccc4[nH]3)cc2c1	inactive: 48.6%	
Cn1c(NN=O)nc2ccccc21		inconclusive: 7.38 µM [inhibitor, partial curve]
